Record: PubChem BioAssay AID504764 (Drosophila RNAi Screening Center, 2011)
The screen tested about 22,000 reagents; this is an unselected part of those with a known target gene and a result. Over the whole deposit, 403 (1.9%) are marked active. 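Unnormalised raw counts per well; ratio z-scores behind the hit calls and whether each hit raises or lowers signal are not deposited.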 The record does not give: the amount of reagent.

- Aim: 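Genes whose knock-down alters Notch-dependent transcription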 (primary screen)
- System: Drosophila Kc167 cells
- Knock-down reagent: long dsRNA against Drosophila genes
- Time to read-out: about 5 days (4 days dsRNA, then 24 h after transfection)
- Conditions: transfection of constitutively active membrane-tethered Notch lacking the extracellular domain, read 24 h later
- Measurement: 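Light from a Notch-responsive E(spl)m3 luciferase reporter under active Notch, with control-promoter and no-Notch reporter wells to normalise; raw counts from paired wells a and b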
- Reading the numbers: induced reporter light, run 1, well a and induced reporter light, run 1, well b: higher = more light from the Notch target reporter with active Notch; control promoter light, run 1, well a and control promoter light, run 1, well b: higher = more light from the viral control promoter (cell number, transfection, viability); uninduced reporter light, run 1, well a: higher = more light from the Notch target reporter without active Notch
- Hit rule: 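Wells with low control signal or poorly matching duplicates excluded; duplicates averaged; per source plate, z beyond ±2 for induced/control log2 ratio or beyond ±1.8 for induced/uninduced marks a hit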
- Meaning of the calls: active = modifier hit (raised or lowered Notch signal); inactive = not a hit

Pi4KIIalpha (Phosphatidylinositol 4-kinase II alpha) [DRSC12322]
- induced reporter light, run 1, well a: 1.30e5
- induced reporter light, run 1, well b: 1.48e5
- control promoter light, run 1, well a: 90375
- control promoter light, run 1, well b: 76950
- uninduced reporter light, run 1, well a: 11780
- activity call: inactive

Pi4KIIalpha (Phosphatidylinositol 4-kinase II alpha) [DRSC12323]
- induced reporter light, run 1, well a: 68375
- induced reporter light, run 1, well b: 80600
- control promoter light, run 1, well a: 1.10e5
- control promoter light, run 1, well b: 73485
- uninduced reporter light, run 1, well a: 7360
- activity call: inactive

TTLL6B (Tubulin tyrosine ligase-like 6B) [DRSC15932]
- induced reporter light, run 1, well a: 1.24e5
- induced reporter light, run 1, well b: 1.26e5
- control promoter light, run 1, well a: 1.87e5
- control promoter light, run 1, well b: 1.75e5
- uninduced reporter light, run 1, well a: 10760
- activity call: inactive

Cdc14 (Cell division cycle 14) [DRSC03013]
- induced reporter light, run 1, well a: 1.36e5
- induced reporter light, run 1, well b: 1.55e5
- control promoter light, run 1, well a: 83680
- control promoter light, run 1, well b: 1.20e5
- uninduced reporter light, run 1, well a: 19640
- activity call: inactive

MTPAP (mitochondrial poly(A) polymerase) [DRSC18585]
- induced reporter light, run 1, well a: 1.38e5
- induced reporter light, run 1, well b: 1.26e5
- control promoter light, run 1, well a: 1.74e5
- control promoter light, run 1, well b: 1.98e5
- uninduced reporter light, run 1, well a: 9105
- activity call: inactive

CG10737 [DRSC05999]
- induced reporter light, run 1, well a: 85635
- induced reporter light, run 1, well b: 97320
- control promoter light, run 1, well a: 1.69e5
- control promoter light, run 1, well b: 1.96e5
- uninduced reporter light, run 1, well a: 7778
- activity call: inactive

CG18180 [DRSC10304]
- induced reporter light, run 1, well a: 1.02e5
- induced reporter light, run 1, well b: 98805
- control promoter light, run 1, well a: 61185
- control promoter light, run 1, well b: 34025
- uninduced reporter light, run 1, well a: 9960
- activity call: inactive

Smyd4-3 (SET and MYND domain containing, class 4, member 3) [DRSC07041]
- induced reporter light, run 1, well a: 99325
- induced reporter light, run 1, well b: 1.36e5
- control promoter light, run 1, well a: 1.07e5
- control promoter light, run 1, well b: 86565
- uninduced reporter light, run 1, well a: 9920
- activity call: inactive

CG3823 [DRSC18325]
- induced reporter light, run 1, well a: 1.37e5
- induced reporter light, run 1, well b: 1.64e5
- control promoter light, run 1, well a: 2.41e5
- control promoter light, run 1, well b: 2.37e5
- uninduced reporter light, run 1, well a: 13010
- activity call: inactive

Ac3 (Adenylate cyclase 3) [DRSC03692]
- induced reporter light, run 1, well a: 2.23e5
- induced reporter light, run 1, well b: 1.96e5
- control promoter light, run 1, well a: 1.74e5
- control promoter light, run 1, well b: 1.79e5
- uninduced reporter light, run 1, well a: 15470
- activity call: inactive

CG3402 [DRSC08567]
- induced reporter light, run 1, well a: 71865
- induced reporter light, run 1, well b: 85045
- control promoter light, run 1, well a: 1.40e5
- control promoter light, run 1, well b: 1.27e5
- uninduced reporter light, run 1, well a: 6405
- activity call: inactive

CG12964 [DRSC06266]
- induced reporter light, run 1, well a: 16955
- induced reporter light, run 1, well b: 14380
- control promoter light, run 1, well a: 17240
- control promoter light, run 1, well b: 16635
- uninduced reporter light, run 1, well a: 4850
- activity call: inactive

Septin4 (Septin 4) [DRSC20205]
- induced reporter light, run 1, well a: 1.03e5
- induced reporter light, run 1, well b: 1.14e5
- control promoter light, run 1, well a: 95515
- control promoter light, run 1, well b: 68195
- uninduced reporter light, run 1, well a: 8335
- activity call: inactive

dcma (decima) [DRSC00246]
- induced reporter light, run 1, well a: 1.24e5
- induced reporter light, run 1, well b: 1.23e5
- control promoter light, run 1, well a: 1.57e5
- control promoter light, run 1, well b: 1.63e5
- uninduced reporter light, run 1, well a: 9865
- activity call: inactive

dcma (decima) [DRSC00338]
- induced reporter light, run 1, well a: 45160
- induced reporter light, run 1, well b: 41685
- control promoter light, run 1, well a: 45825
- control promoter light, run 1, well b: 47050
- uninduced reporter light, run 1, well a: 2188
- activity call: inactive

CG17855 [DRSC02638]
- induced reporter light, run 1, well a: 1.27e5
- induced reporter light, run 1, well b: 1.29e5
- control promoter light, run 1, well a: 82290
- control promoter light, run 1, well b: 1.03e5
- uninduced reporter light, run 1, well a: 17675
- activity call: inactive

PolE1 (DNA polymerase epsilon subunit 1) [DRSC16112]
- induced reporter light, run 1, well a: 6920
- induced reporter light, run 1, well b: 5660
- control promoter light, run 1, well a: 6565
- control promoter light, run 1, well b: 9030
- uninduced reporter light, run 1, well a: 665
- activity call: inactive

CG8569 [DRSC07214]
- induced reporter light, run 1, well a: 1.22e5
- induced reporter light, run 1, well b: 1.21e5
- control promoter light, run 1, well a: 97640
- control promoter light, run 1, well b: 91215
- uninduced reporter light, run 1, well a: 7640
- activity call: inactive

Looked up above:
Result of Septin4 (Septin 4) [DRSC20205] under “control promoter light, run 1, well a”: 95515
Entry for PolE1 (DNA polymerase epsilon subunit 1) [DRSC16112] under “activity call”: inactive
